Five sequences from paper PMC5561223 can be followed below.

The exact form of at least one protein or probe is not confirmed. Negatives hold for the conditions tested.

In the series the test system is H6-YebC (Lactobacillus delbrueckii subsp. lactis CRL 581). Briefly: EMSA. The conditions noted are these: 25 mM Tris-HCl pH 8, 50 mM KCl, 0.5 mM EDTA, 0.01% BSA, 1 ug poly(dI-dC), 10% glycerol, 50 ng DNA in 20 ul, 30 C 30 min, 6% PAGE in TAE, recombinant protein, protein details: N-terminal His6 (pRSETA), label: none (ethidium bromide stain). (In EMSA bound probe runs differently from free probe, usually more slowly.)

For the sequence “AGAGTGATTGATATCGCGGCAACTAAATACCGCCGCTAAAGCTGCCGGAAGGCGGCTTTTTTGCTTGGCGTCTTGTTTGCCAGGGCTGGCGAAGATTGATAGAATTTTATTTAGGTGGTTAGTTGCTTTTTGTAACTAATTTCAAAAAACAGCAGGCATTGAAAATAAACATTAGGAGAAAAAGATGGACTTAAACTTTAAAGAACTGGCGGAAGCCAA (double strand) [PpepV]”, the binding result (1.6 uM YebC) is “no binding”.
Still for that read-out and setting: as for “GCAAAAGGACCAGCTCCGAAAAAGAGCCGGTCCTTTTTTCAACCGGTATAATCTAGCTATCCCCTATTTTGTATGTAAAAATCTTTCTCATTTTCCGATAATTTCTTGCCCAGCTCCTTCTTAATAAAGTAGTTTCTCTTTTCGTATAGGATTTTAATTTAACGGTGAGAGGCTTATGATTTCTTTTGGCAAGCGCTAACAAGCACTCCTGTGTGATTGATAGGATTATATTTGATAGGGGGAAATATCATGCGTAAGTTTAT (double strand) [PpepD]”, the entry is “no binding”; as for “GAGCATCAACTATGTCGGCCAGGCCCTGCAAAAGGCTGGCGACGCCCGGCAAAGAGAAAACTAAAAACAATTAGCATTAAATTAAAATTATCATTGACTTTTAAAATTAAACTGCTAAAATAAAAAGCATGAAAGATAAAATTTGTGAATCGCTATCTCGATAACTATTCATATGCTGTGTGTTTTATCTTTTGAATATATTGTGTGGAGGTAAATTAAATTATGAAGAGAAGAATGCTCGGAACATTTGGAGTACTTCTGGCCGGGGCAGCTTTGCTGGCCGGTTGCGGCAAGAGCAGCTCCAGCTCCAGCAACAGCGGGGCTAAGGATC (double strand) [PoppA1]”, “binds”; as for “ACTTGGAACTTCAAGGACACTTACATCAAGTAATCAAGCAAAAAGAAGAGGCTCAGCCTCTTCTTTTTTGTGCTATAAGTATTTTTAGATTGACTTGTATCTGTTTTTGGATATTTAGATTGTTGAAATAAAATAGCACTTTTTCTTAAAAATACTTGAAGAAGCATAAACGAAGAACTATAATGAAAATATCATTAAAGGCTGCTGTAGAGCTTTAATTTGTGTAGGCGCTGGAACAGTCAGTAAAAGCAAGGAGAAAAAGATGAAATTATCTAAGACTTTAAGCCTGGGAGCCAC (double strand) [PoptS]”, “binds”.
For “AGCTGAGTCAGAGCATGCCGGGGAAATCTGGTACAACATGATCAAAGAGATAGAAGGTTAGAAAGCGGTCAGCAGGTGCTGGCTGCTTTTTCTTTTGCTTTATAAGTTAAACATTTTAATGTAAATCTAACTTAAAAAACTATAGCTAAAATTTGTCAATATTCTTTTCTTAAATGAAAAAGCTGATAGAACTATGTTTAAATAGGGACGGTGTTATTATAATCAAAAAGGTAACACTATACCACGACTTTAGCGAATCAACTTTAAGTTAGTATTTTGTAGATTTTTAACTTCATAGCACGTTATTTTCTCGCGTATTGCTGAAATAATGTGTTTTTTGTTTTTTGGCGTTCAGAAGTTACTTTTCCACTGTTTGATTTAAAATTCTGCTAAAAAACACTTAACTTTAATTTAAACTATGGTATGATTATGAAATGTTAGTGAGCTAAAGCTGTGTGATGAAAGGCTTGC (double strand) [PprtL]”, the binding result by setting is: (1.6 uM YebC, 5 mM each Leu, Val, Ile) “binds”; (1.6 uM YebC, 10 mM Ile) “binds”; (1.6 uM YebC, 10 mM Leu) “binds”; (1.6 uM YebC, 10 mM Val) “binds”; (1.6 uM YebC, 10 mM each Leu, Val, Ile) “binds”; (shift at 1.6 uM YebC (0-1.6 uM titrated)) “binds”.
